We go through 53 compounds from the supplement of paper PMC7858590.

Values joined by “and” are separate entries in the source; they are usually repeats but may differ in a detail not shown here. Equal entries are not always repeated. ± gives the standard deviation of the averaged measurements. The full ranking holds about 3,800 compounds; the median of “cell shape (eccentricity) Z-score vs DMSO control” is about 1.1, and the lowest 2% start at about -4.7. The list shows a part of the results.

The subject of the experiment is human monocyte-derived macrophages (M0). Description: cell shape (eccentricity) Z-score vs DMSO control; higher = more elongated, M2-like morphology. Conditions: 20 µM; 24 h; macrophage state: M0 (M-CSF).
For the compound `CC(=O)O[C@@H]1CC2C(C)(C)C(=O)CC[C@]2(C)C2CC[C@@]3(C)[C@H](c4ccoc4)OC(=O)C4OC43[C@@]21C` (stereo partly drawn), the “cell shape (Z-score)” value was -5.48.
For `OC1(c2ccc3c(c2)OCO3)OCC2C(c3ccc4c(c3)OCO4)OCC21O` (stereo not drawn) the value was 1.82.
Under `Cc1c[nH]c(=O)n(CCCN2CCN(c3ccccc3OCC(F)(F)F)CC2)c1=O` stands 0.795; under `CC/C(=C(\c1ccccc1)c1ccc(OCCN(C)C)cc1)c1ccccc1`, -1.52 and -1.41 and -1.25; under `COc1c(-c2ccc(O)cc2)oc2cc(O)cc(O)c2c1=O`, 1.17.
On to `COc1cc(-c2oc3cc(O)cc(O)c3c(=O)c2OC2OC(CO)C(O)C(O)C2O)ccc1O` (stereo not drawn), for which the “cell shape (Z-score)” value turned out to be 1.26.
On to `COc1ccc2c(c1)OCC(Cc1ccc(OC)c(OC(C)=O)c1)C2=O` (stereo not drawn), for which the “cell shape (Z-score)” value is -1.55.
On to `CCC(=O)OCN1C(=O)C=CC1=O`, for which the “cell shape (Z-score)” value was determined as 2.44.
For `CC1OC(OC2C(OC(=O)C34CCC(C)(C)CC3C3=CCC5C6(C)CCC(OC7OC(CO)C(OC8OC(C(=O)O)C(OC9OCC(O)C(O)C9O)C(O)C8O)C(O)C7O)C(C)(CO)C6CCC5(C)C3(C)CC4)OC(COC3OCC(O)C(O)C3O)C(O)C2O)C(O)C(O)C1O` (stereo not drawn), the “cell shape (Z-score)” value was found to be 0.578.
For `CSC(N)=C(C#N)C(C#N)=C(N)SC` the value was 0.948; for `Cn1cncc1[C@](N)(c1ccc(Cl)cc1)c1ccc2c(c1)c(-c1cccc(Cl)c1)cc(=O)n2C`, 3.63.
Under `CN1CCc2cccc3c2C1Cc1ccc(O)c(O)c1-3` (stereo not drawn) stands -1.88; under `C=C1C2(C)OC(=O)C34OC2C2=C(CO)C5(CCC2(C)C13C(=O)OC4C)C(O)CC(=O)OC5(C)C` (stereo not drawn), -0.334.
In the case of `CCCC1=CC(=O)C(O)C1O` (stereo not drawn), the “cell shape (Z-score)” value was 0.248.
Under `COC(=O)C1=CO[C@@H](OC2OC(O)C(O)C(O)C2CO)[C@H]2[C@@H]1C=CC21C=C([C@H](C)O)C(=O)O1` (stereo partly drawn) stands 1.86.
Under `CC1(CCO[C@H]2O[C@H](CO)[C@@H](O)[C@H](O)[C@H]2O)CCC2C(=CCC3[C@]2(C)CCC[C@@]3(C)C(=O)O)C1` (stereo partly drawn) stands 2.05 ± 2.1; under `CC1(C)CC[C@]2(C(=O)O[C@@H]3O[C@H](CO)[C@@H](O)[C@H](O)[C@H]3O)CC[C@]3(C)C(=CCC4[C@@]5(C)C[C@@H](O)[C@H](O)[C@@](C)(CO)C5[C@H](O)C[C@]43C)C2[C@@H]1O` (stereo partly drawn), 3.49.
For `O=c1[nH]c2cc([N+](=O)[O-])c([N+](=O)[O-])cc2[nH]c1=O` the value was 3.5.
As for `Cc1cc(C(=O)Nc2cccc3c2O[C@H](CN(C)C)[C@@H](C)CN([C@H](C)CO)C3=O)n(C)n1`, the “cell shape (Z-score)” value is -0.292.
With `COc1ccc(CCCn2ncc3c2nc(N)n2nc(-c4ccco4)nc32)cc1`, the “cell shape (Z-score)” value is 2.51.
Under `COC(=O)C(c1ccccc1Cl)N1CCc2sccc2C1` (stereo not drawn) stands 3.31; under `Cn1c2ccccc2c2c3c(c4c5ccccc5n(CCC#N)c4c21)CNC3=O`, 13; under `CCC(=O)O[C@]1(C(=O)CCl)[C@@H](C)CC2C3CCC4=CC(=O)C=C[C@]4(C)[C@@]3(F)[C@@H](O)C[C@@]21C` (stereo partly drawn), 2.69.
Under `O=C(O)c1cc(O)c2c(Cl)cc(Cl)cc2n1` stands 2.08.
For `CCOc1ccccc1OC(c1ccccc1)C1CNCCO1` (stereo not drawn) the value was 1.66; for `CC(C=CC1=C(C)CCCC1(C)C)=CC=CC(C)=CCO`, 5.37 and 5.62.
On to `COc1c(CO)c(O)cc2c1C(=O)CCC2O` (stereo not drawn), for which the “cell shape (Z-score)” value amounted to 3.82.
For `N=C(N)Nc1ccc(Cl)cc1`, the “cell shape (Z-score)” value was found to be 0.554.
For `NC(Cn1ccc(=O)n(Cc2ccccc2C(=O)O)c1=O)C(=O)O` (stereo not drawn) the value was 2.3.
Under `COC(=O)c1ccc2c(c1)nc(NC(=O)c1ccccc1)n2CCCc1ccccc1` stands 2.3; under `CN(C)CCCO[C@H]1[C@@H](C(O)CO)OC2OC(C)(C)O[C@@H]21` (stereo partly drawn), 3.13; under `CC(C)NCC(O)c1ccc2ccccc2c1` (stereo not drawn), 0.398.
Under `COc1cc2c(Oc3ccc4[nH]c(C)cc4c3F)ncnc2cc1OCCCN1CCCC1` stands 10; under `O=C(O)CCC(=O)Nc1ccc(S(=O)(=O)Nc2nccs2)cc1`, 1.06.
On to `C=C1CCC2C(C(=O)O)=COC(O[C@@H]3O[C@H](CO)[C@@H](O)[C@H](O)[C@H]3O)C12` (stereo partly drawn), for which the “cell shape (Z-score)” value is -2.64.
Under `CC(O)(C(=O)Nc1ccc(S(=O)(=O)c2ccccc2)cc1)C(F)(F)F` (stereo not drawn) stands 0.95; under `CC(=O)O[C@@H]1C[C@@]23C[C@@]24CC[C@H](O[C@@H]2OC[C@@H](O)[C@H](O)[C@H]2O)C(C)(C)[C@@H]4CC[C@H]3[C@]2(C)C[C@@H]3O[C@]4(C[C@@H](C)[C@@H]3[C@@]12C)O[C@H](O)[C@@]1(C)O[C@@H]41`, 0.788.
For `C=C1C2=CC(=O)O[C@@H](c3ccoc3)[C@]2(C)CCC1[C@@]1(C)C=CC(=O)C(C)(C)[C@@H]1CC(=O)OC` (stereo partly drawn) the value was -1.71; for `C[C@@H]1O[C@@H](O[C@H]2[C@H](O[C@H]3CC[C@@]4(C)C(CC[C@]5(C)C4CC=C4C6CC(C)(C)CC[C@]6(C(=O)O)CC[C@]45C)[C@]3(C)CO)OC[C@H](O)[C@@H]2O)[C@H](O)[C@H](O)[C@H]1O` (stereo partly drawn), 0.241.
For `COc1ccc(C[C@H](C)NC[C@@H](O)c2ccc(O)c(NC=O)c2)cc1.COc1ccc(C[C@H](C)NC[C@@H](O)c2ccc(O)c(NC=O)c2)cc1` the value was 2.91.
As for `C=C(C)[C@H]1COc2cc3oc(=O)ccc3cc2O1`, the “cell shape (Z-score)” value stood at 2.13.
Under `CC1(CC(=O)O)CCC2(O1)C(CO)=CCC1C(C)(C)C(O)CCC12C` (stereo not drawn) stands 0.483; under `N#Cc1nc2c(nc1C#N)-c1ccc(Cl)cc1C2=O`, 2.23; under `CC(=O)Nc1ccc(S(=O)(=O)Nc2ccc([N+](=O)[O-])cc2)cc1`, 3.83.
Under `COc1ccccc1OCC(O)CN1CCN(CC(=O)Nc2c(C)cccc2C)CC1` (stereo not drawn) stands -2.69.
Under `COC(/C=C/C(OC(C)=O)C(C)OC(C)=O)C(O)C1CC=CC(=O)O1` (stereo not drawn) stands -2.32; under `NS(=O)(=O)c1nn2cc(-c3ccccc3)nc2s1`, 4.03; under `O=S(=O)(c1cccc2cnccc12)N1CCNCC1`, 10.1.
On to `CC1(C)O[C@@H]2CC3C4CCC5=CC(=O)CCC5(C)C4(F)C(O)CC3(C)[C@]2(C(=O)CCl)O1` (stereo partly drawn), for which the “cell shape (Z-score)” value was -3.6.
Under `CC1=CC(=O)C2C(C)(C)CC(O)CC2(C)C1(O)CO` (stereo not drawn) stands 2.65 ± 1.5.
Under `CCCNCC(O)COc1ccccc1C(=O)CCc1ccccc1` (stereo not drawn) stands 2.27.
For `CCCCC1(COC(=O)CCC(=O)O)C(=O)N(c2ccccc2)N(c2ccccc2)C1=O` the value was 2.18.
For the compound `C[C@@H]1O[C@@H](O[C@H]2[C@H](Oc3cc(O)c4c(=O)cc(-c5ccc(O)cc5)oc4c3)O[C@H](CO)[C@@H](O)[C@@H]2O)[C@H](O)[C@H](O)[C@H]1O`, the “cell shape (Z-score)” value came out at 1.02.
